Some of the results follow. The data scatter; read single values as rough.
compound: ClCC(=O)N[C@@H]1CCCc2ccccc12; test: log2 mean competition ratio of IA-DTB cysteine labelling (DMSO/compound) (log2 ratio); higher = stronger cysteine engagement by compound; settings: 50 µM; treatment time: 4 h; cell line lysate: HEK293T
Procedure: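 IA-DTB competitive cysteine chemoproteomics in HEK293T RIPA lysate. Lysates were treated with compound 29 or 30 at 50 or 200 µM for 4 h, then IA-DTB (500 µM, 1 h), trypsin-digested, NeutrAvidin-enriched and analysed by diaPASEF. Competition ratio = intensity DMSO / intensity compound (n=4 treated, n=64 DMSO); binding: mean log2 CR ≥ 1 and p ≤ 0.05 plus QC filters. Target is the cysteine site.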

Chains of the proteins cited; added tags and fusions are not shown. Lines headed by an entry give the natural chain unless they say otherwise; changes in a name come on top. Residues count along the entry.
UniProt Q14191, whole entry, looked up: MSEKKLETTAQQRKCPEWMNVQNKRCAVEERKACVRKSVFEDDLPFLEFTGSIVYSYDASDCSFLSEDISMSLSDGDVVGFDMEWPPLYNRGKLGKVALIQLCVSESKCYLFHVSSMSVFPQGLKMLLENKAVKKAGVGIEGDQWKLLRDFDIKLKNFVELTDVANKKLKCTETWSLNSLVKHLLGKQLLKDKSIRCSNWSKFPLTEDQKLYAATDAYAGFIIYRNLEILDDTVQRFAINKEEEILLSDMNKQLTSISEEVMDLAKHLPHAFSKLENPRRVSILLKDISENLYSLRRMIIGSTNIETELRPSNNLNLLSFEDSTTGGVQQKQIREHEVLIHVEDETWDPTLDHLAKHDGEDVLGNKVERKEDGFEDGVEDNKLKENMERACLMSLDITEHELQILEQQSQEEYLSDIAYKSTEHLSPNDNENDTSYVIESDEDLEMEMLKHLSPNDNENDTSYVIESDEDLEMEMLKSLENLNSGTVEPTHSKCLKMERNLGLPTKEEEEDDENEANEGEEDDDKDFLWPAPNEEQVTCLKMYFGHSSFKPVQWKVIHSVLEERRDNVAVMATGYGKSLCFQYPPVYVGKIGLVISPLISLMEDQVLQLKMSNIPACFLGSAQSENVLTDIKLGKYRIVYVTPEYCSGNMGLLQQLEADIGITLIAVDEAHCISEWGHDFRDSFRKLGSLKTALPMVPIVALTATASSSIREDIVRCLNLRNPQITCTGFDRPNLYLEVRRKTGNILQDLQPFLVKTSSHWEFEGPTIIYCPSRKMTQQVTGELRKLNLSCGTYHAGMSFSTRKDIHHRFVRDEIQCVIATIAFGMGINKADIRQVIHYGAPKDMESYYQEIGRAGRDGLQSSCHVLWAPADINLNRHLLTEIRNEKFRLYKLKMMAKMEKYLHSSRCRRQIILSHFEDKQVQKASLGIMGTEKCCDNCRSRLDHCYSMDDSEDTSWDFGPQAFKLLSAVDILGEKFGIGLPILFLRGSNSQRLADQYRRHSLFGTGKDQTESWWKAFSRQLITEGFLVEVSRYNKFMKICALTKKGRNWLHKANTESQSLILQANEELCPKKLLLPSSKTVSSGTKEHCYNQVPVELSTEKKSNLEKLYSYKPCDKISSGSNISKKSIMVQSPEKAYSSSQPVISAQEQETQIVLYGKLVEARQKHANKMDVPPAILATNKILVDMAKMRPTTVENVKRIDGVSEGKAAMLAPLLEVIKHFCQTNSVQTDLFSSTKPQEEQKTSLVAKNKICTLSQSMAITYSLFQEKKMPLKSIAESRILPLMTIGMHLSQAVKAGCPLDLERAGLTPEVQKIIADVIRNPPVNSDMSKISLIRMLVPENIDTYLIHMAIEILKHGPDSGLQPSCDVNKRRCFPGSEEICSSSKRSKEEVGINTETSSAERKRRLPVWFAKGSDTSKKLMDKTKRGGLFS
UniProt Q9ULJ3: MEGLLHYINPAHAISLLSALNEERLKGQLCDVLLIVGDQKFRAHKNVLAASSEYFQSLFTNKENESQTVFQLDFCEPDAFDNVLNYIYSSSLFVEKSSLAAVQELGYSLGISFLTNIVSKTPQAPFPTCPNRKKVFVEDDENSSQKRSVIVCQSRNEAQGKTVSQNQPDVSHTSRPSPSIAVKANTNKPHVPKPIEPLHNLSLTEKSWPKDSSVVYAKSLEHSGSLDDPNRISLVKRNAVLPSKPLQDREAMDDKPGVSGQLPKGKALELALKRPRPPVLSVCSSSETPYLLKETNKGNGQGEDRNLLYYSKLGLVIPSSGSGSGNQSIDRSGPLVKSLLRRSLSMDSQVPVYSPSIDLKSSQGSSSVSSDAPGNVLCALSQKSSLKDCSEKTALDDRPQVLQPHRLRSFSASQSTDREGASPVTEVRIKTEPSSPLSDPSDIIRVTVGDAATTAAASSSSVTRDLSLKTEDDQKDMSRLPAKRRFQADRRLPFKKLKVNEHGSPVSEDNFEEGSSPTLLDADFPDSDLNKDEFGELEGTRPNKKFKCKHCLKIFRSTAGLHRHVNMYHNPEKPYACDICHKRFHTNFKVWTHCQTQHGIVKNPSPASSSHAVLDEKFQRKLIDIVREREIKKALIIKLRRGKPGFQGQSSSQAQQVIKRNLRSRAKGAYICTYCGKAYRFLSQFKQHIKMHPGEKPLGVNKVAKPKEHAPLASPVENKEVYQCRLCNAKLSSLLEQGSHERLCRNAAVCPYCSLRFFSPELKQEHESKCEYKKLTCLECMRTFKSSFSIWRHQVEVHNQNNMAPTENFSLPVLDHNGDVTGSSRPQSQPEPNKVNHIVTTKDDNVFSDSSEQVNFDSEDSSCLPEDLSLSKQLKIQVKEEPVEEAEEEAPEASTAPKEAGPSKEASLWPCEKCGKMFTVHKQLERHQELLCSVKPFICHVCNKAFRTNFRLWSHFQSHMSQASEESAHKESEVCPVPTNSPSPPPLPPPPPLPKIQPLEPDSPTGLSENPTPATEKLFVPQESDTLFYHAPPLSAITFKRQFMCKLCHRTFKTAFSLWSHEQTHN
UniProt O00401: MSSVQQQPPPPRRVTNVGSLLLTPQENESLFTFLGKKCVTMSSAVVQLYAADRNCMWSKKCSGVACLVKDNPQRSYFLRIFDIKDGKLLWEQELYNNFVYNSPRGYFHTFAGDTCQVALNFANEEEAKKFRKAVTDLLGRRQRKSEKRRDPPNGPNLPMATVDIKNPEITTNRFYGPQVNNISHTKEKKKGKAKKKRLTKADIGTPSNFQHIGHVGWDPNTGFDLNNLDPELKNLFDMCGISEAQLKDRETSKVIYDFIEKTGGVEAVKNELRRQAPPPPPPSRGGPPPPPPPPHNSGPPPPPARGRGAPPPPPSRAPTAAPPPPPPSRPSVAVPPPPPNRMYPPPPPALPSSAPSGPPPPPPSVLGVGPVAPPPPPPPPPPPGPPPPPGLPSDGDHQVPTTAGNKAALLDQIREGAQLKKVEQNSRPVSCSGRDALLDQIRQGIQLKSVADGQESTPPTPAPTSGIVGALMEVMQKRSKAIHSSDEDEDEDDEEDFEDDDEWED
UniProt Q9NNW5: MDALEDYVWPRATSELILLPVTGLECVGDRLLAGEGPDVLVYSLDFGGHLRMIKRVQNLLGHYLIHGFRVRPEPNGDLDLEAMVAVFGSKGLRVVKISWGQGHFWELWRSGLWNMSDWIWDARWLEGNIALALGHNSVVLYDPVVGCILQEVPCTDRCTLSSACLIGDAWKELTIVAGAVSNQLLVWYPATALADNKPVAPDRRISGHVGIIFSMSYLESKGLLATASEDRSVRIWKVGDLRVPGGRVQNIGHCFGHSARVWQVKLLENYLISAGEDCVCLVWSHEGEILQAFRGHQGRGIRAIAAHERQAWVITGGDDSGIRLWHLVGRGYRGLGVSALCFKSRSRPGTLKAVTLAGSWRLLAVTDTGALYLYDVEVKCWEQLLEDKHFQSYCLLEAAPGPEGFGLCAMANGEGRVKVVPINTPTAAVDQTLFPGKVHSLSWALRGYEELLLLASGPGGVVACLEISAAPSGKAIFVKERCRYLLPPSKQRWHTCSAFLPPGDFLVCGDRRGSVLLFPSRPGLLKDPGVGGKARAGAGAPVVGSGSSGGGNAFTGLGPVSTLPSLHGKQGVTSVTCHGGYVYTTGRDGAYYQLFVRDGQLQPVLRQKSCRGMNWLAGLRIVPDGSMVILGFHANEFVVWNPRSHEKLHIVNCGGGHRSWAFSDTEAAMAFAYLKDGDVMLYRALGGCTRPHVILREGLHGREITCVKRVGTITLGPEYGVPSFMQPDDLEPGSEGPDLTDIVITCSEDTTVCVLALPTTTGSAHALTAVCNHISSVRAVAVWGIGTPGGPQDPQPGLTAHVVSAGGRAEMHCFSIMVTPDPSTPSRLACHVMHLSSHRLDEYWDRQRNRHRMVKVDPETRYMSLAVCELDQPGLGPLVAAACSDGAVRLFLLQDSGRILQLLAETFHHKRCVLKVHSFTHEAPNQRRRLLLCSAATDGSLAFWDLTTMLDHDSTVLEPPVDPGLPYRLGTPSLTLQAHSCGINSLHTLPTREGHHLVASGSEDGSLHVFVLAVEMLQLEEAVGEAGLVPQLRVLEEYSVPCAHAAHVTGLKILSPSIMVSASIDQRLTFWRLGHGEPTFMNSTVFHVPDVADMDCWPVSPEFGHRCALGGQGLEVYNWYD
UniProt Q6PJI9: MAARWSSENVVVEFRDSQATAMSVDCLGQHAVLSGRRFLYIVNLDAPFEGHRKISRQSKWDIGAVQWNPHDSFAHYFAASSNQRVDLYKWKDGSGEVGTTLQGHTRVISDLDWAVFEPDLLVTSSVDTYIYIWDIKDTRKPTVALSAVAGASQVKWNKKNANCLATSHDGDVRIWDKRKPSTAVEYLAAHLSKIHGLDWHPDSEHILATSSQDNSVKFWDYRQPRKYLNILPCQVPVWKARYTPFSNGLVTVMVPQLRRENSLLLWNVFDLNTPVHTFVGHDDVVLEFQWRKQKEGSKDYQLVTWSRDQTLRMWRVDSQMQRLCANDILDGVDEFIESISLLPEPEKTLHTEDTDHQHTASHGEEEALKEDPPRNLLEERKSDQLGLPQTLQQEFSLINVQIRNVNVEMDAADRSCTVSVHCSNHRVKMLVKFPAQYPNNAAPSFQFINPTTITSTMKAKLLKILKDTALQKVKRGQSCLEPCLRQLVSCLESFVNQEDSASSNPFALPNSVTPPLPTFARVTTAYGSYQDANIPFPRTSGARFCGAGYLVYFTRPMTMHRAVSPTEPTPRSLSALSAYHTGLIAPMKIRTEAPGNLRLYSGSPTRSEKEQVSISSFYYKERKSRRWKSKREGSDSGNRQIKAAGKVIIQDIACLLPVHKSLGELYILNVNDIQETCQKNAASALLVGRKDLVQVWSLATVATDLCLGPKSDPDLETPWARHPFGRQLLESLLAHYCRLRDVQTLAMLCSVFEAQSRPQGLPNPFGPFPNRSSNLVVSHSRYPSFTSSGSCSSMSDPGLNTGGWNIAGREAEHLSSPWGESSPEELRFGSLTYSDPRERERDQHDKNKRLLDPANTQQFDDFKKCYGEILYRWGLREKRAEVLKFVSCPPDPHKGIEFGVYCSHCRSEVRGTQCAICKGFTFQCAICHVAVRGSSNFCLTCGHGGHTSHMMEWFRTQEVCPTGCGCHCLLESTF
UniProt Q99986, 220-240: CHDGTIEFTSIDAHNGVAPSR
UniProt Q04917: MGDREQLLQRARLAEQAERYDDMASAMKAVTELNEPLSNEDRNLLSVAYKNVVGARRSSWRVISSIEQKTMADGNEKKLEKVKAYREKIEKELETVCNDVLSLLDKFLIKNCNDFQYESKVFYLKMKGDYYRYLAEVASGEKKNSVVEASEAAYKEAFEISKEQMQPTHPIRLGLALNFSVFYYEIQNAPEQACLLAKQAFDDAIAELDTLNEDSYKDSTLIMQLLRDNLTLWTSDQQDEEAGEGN
UniProt Q5D1E8: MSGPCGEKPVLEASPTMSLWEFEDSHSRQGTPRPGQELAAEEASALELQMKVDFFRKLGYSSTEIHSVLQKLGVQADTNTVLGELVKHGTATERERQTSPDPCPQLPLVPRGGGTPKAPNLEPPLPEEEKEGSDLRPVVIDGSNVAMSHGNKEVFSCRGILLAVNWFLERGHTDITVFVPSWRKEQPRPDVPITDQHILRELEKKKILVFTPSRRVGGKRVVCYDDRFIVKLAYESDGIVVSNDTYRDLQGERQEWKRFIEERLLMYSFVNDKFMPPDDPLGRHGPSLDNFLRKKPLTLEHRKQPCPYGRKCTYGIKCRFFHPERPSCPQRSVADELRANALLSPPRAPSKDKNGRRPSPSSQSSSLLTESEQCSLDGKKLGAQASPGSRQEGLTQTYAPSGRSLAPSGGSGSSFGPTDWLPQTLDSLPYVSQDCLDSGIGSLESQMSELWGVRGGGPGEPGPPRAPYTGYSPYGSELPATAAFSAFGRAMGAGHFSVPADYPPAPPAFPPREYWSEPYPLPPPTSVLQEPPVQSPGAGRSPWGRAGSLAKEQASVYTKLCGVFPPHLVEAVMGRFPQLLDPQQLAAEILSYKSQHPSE
UniProt Q5T9L3: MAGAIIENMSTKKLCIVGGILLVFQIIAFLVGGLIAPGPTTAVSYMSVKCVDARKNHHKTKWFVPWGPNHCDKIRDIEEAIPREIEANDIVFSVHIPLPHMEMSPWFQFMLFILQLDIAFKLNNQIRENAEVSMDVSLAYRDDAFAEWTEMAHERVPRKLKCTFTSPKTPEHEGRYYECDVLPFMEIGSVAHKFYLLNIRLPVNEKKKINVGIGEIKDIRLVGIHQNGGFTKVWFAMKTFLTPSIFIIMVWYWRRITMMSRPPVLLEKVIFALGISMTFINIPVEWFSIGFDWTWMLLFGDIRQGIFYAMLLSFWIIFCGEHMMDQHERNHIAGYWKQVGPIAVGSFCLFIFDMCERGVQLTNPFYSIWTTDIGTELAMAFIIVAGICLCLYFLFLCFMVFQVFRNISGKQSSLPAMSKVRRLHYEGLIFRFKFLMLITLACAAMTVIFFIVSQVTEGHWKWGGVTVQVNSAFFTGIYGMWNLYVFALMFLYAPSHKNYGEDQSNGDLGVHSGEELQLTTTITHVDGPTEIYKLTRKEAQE

Row | Target | log2 mean competition ratio
1 | WRN C1299 (UniProt Q14191) | 0.294
2 | ZBTB21 C152 (UniProt Q9ULJ3) | 0.165
3 | XRCC6 C398 (UniProt P12956) | -0.357
4 | XPO4 C796 (UniProt Q9C0E2) | -0.306
5 | WASL C431 (UniProt O00401) | 0.247
6 | ZBTB44 C151 (UniProt Q8NCP5) | -0.23
7 | WDR11 C1000 (UniProt Q9BZH6) | -0.203
8 | WDR6 C653 (UniProt Q9NNW5) | 0.162
9 | WDR59 C865 (UniProt Q6PJI9) | 0.287
10 | VPS51 C226 (UniProt Q9UID3) | -0.0112
11 | YEATS2 C1232 (UniProt Q9ULM3) | -0.115
12 | VRK1 C220 (UniProt Q99986) | -0.325
13 | YJU2 C46 (UniProt Q9BW85) | -0.118
14 | WDHD1 C773 (UniProt O75717) | 0.578
15 | YWHAH C112 (UniProt Q04917) | 0.0727
16 | WDR4 C137 (UniProt P57081) | 0.487
17 | ZC3H12A C103 (UniProt Q5D1E8) | -0.536
18 | VPS8 C974 (UniProt Q8N3P4) | 0.574
19 | WLS C71 (UniProt Q5T9L3) | 0.0191
20 | WDR62 C647 (UniProt O43379) | -0.019

same assay, conditions: 200 µM; treatment time: 4 h; cell line lysate: HEK293T

Row | Target | log2 mean competition ratio
21 | WRN C1299 (UniProt Q14191) | 0.147
22 | ZBTB21 C152 (UniProt Q9ULJ3) | -0.0628
23 | XRCC6 C398 (UniProt P12956) | 0.55
24 | XPO4 C796 (UniProt Q9C0E2) | -0.325
25 | WASL C431 (UniProt O00401) | 0.245
26 | ZBTB44 C151 (UniProt Q8NCP5) | 0.493
27 | WDR11 C1000 (UniProt Q9BZH6) | -0.0687
28 | WDR6 C653 (UniProt Q9NNW5) | -0.492
29 | WDR59 C865 (UniProt Q6PJI9) | 0.171
30 | VPS51 C226 (UniProt Q9UID3) | 0.0717
31 | YEATS2 C1232 (UniProt Q9ULM3) | 0.154
32 | VRK1 C220 (UniProt Q99986) | 0.523
33 | YJU2 C46 (UniProt Q9BW85) | -0.198
34 | WDHD1 C773 (UniProt O75717) | 0.225
35 | YWHAH C112 (UniProt Q04917) | -0.269
36 | WDR4 C137 (UniProt P57081) | -0.158
37 | ZC3H12A C103 (UniProt Q5D1E8) | -0.568
38 | VPS8 C974 (UniProt Q8N3P4) | 1.12
39 | WLS C71 (UniProt Q5T9L3) | -0.0137
40 | WDR62 C647 (UniProt O43379) | 0.0711

From the supplement of paper PMC11732987, “Enantioselective OTUD7B fragment discovery through chemoproteomics screening and high-throughput optimisation” (Communications Chemistry, 2025)
